Source: PubChem BioAssay AID202 (DTP/NCI, 2004)
The list is a part of this screen's results and no random one: its compounds were picked by chemical class. Not every dose and run of a compound is shown. T/C is the treated group as % of the vehicle group. Schedules are NCI's codes, read here as Q, the interval in days (D) or hours (H), X, the number of doses. Some T/C values are marked as having no survivor count here; that says nothing about deaths at the dose.

System: HT29 xenograft, nude mice, s.c., tumor weight T/C%
Assay: NCI In Vivo Anticancer Drug Screen. Data for tumor model HT29;CX-1 Human Adenocarcinoma (MER+) (subcutaneous) in NU/NU Swiss (nude) mice
Settings: T/C endpoint: optimum tumor weight change, schedule: Q04DX003 (ip), vehicle: water, evaluated on day 34, higher T/C = larger tumour
Experimental: The antitumor activity of compounds was measured in mice bearing transplantable tumors. Survival or tumor size were measured and the results are expressed as the measurement made in the treated group (T) divided by the measurement made in the vehicle treated control group (C). The tumor model used in this assay is HT29;CX-1 Human Adenocarcinoma (MER+) (subcutaneous) in NU/NU Swiss (nude) mice

SMILES: CC(=O)OCC12CCC(C)=CC1OC1C(O)C(OC(C)=O)C2(C)C12CO2 (configuration not stated)
- T/C (dose: 0.5 mg/kg/injection): 42 % of control [survivor count not shown]
- T/C (dose: 2.0 mg/kg/injection): 60 % of control [survivor count not shown]
